Experimental data: PubChem BioAssay AID1259308 (NCATS, 2017)

- Screen: 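Candidate targets for better recombinant protein yield in mammalian cells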 (primary screen)
- Cells: human HEK293 embryonic kidney cells stably expressing firefly luciferase (HEK-CMV-Luc2-Hygro)
- Reagent: single siRNA against human genes, 0.8 pmol siRNA per well
- Time to read-out: 72 h
- Measurement: 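Luciferase light (ONE-Glo) measured on one replicate plate set and viability (CellTiter-Glo) on the other, scaled to a negative control siRNA, with robust z-scores and luciferase per cell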
- Direction: total luciferase, z-score: higher = more reporter protein produced
- Rule for the call: 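Active when the median/MAD z-score for overall luciferase is greater than 3; a gene was taken forward for validation with new siRNAs if at least two of its three siRNAs passed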
- Meaning of the calls: active = raised luciferase; inactive = no rise
In all, the deposit lists about 59,000 reagents; this is an unselected part. About 1,510 of all reagents (2.6%) count as active. 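Calls use total luciferase alone and ignore viability, so some active siRNAs may act by altering cell number.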 A number with no mark means an inactive call. Reagents against one gene are numbered here. Not all columns of the deposit are shown. No sequences are given here.

NCKAP5L (NCK associated protein 5 like) #1 showed total luciferase, z-score -0.304.
Silencing of NCKAP5L (NCK associated protein 5 like) #2 resulted in: total luciferase, z-score 0.511.
NCKAP5L (NCK associated protein 5 like) #3 scored total luciferase, z-score -2.04.
STX12 (syntaxin 12) #1 gave total luciferase, z-score 3.87 (active).
STX12 (syntaxin 12) #2 showed total luciferase, z-score -0.459.
With knock-down of STX12 (syntaxin 12) #3 the results were total luciferase, z-score -1.08.
Depletion of ZNF775 (zinc finger protein 775) #1 gave: total luciferase, z-score -0.292.
Silencing of ZNF775 (zinc finger protein 775) #2 resulted in: total luciferase, z-score -1.42.
ZNF775 (zinc finger protein 775) #3 gave total luciferase, z-score 0.335.
Knock-down of BEST3 (bestrophin 3) #1 resulted in: total luciferase, z-score -0.925.
For BEST3 (bestrophin 3) #2, the entry reads total luciferase, z-score 3.48 (active).
Against BEST3 (bestrophin 3) #3, the values are total luciferase, z-score -0.493.
Against COQ8A (coenzyme Q8A) #1, the values are total luciferase, z-score -0.146.
For COQ8A (coenzyme Q8A) #2, the entry reads total luciferase, z-score 0.805.
With knock-down of COQ8A (coenzyme Q8A) #3, the record shows total luciferase, z-score 2.63.
DNM1P31 (dynamin 1 pseudogene 31) #1 scored total luciferase, z-score -0.512.
DNM1P31 (dynamin 1 pseudogene 31) #2 showed total luciferase, z-score 1.25.
Against DNM1P31 (dynamin 1 pseudogene 31) #3, the entry reads total luciferase, z-score 2.
Knock-down of LRRCC1 (leucine rich repeat and coiled-coil centrosomal protein 1) #1 gave: total luciferase, z-score 0.355.
After knock-down of LRRCC1 (leucine rich repeat and coiled-coil centrosomal protein 1) #2, the record shows total luciferase, z-score 0.239.
For LRRCC1 (leucine rich repeat and coiled-coil centrosomal protein 1) #3, the entry reads total luciferase, z-score -1.19.

3 neighbouring entries already listed, quoted:
BEST3 (bestrophin 3) #2: total luciferase, z-score = 3.48 (active)
BEST3 (bestrophin 3) #3: total luciferase, z-score = -0.493
COQ8A (coenzyme Q8A) #1: total luciferase, z-score = -0.146

More entries follow:
For KCNJ2 (potassium inwardly rectifying channel subfamily J member 2) #1 the deposit lists total luciferase, z-score -0.407.
For KCNJ2 (potassium inwardly rectifying channel subfamily J member 2) #2, the entry reads total luciferase, z-score -0.578.
With knock-down of KCNJ2 (potassium inwardly rectifying channel subfamily J member 2) #3, the screen gave total luciferase, z-score -0.712.
With knock-down of TASP1 (taspase 1) #1, the record shows total luciferase, z-score -1.13.
For TASP1 (taspase 1) #2 the deposit lists total luciferase, z-score -0.478.
With knock-down of TASP1 (taspase 1) #3, the screen gave total luciferase, z-score -0.548.
Knock-down of TARBP2 (TARBP2 subunit of RISC loading complex) #1 came out at: total luciferase, z-score 1.43.
TARBP2 (TARBP2 subunit of RISC loading complex) #2 showed total luciferase, z-score -0.552.
Knock-down of TARBP2 (TARBP2 subunit of RISC loading complex) #3 resulted in: total luciferase, z-score -1.39.
For SP8 (Sp8 transcription factor) #1, the values are total luciferase, z-score 1.47.
For SP8 (Sp8 transcription factor) #2 the deposit lists total luciferase, z-score 1.49.
For SP8 (Sp8 transcription factor) #3, the values are total luciferase, z-score 1.78.
Against CELF2 (CUGBP Elav-like family member 2) #1 the deposit lists total luciferase, z-score -1.34.
With knock-down of CELF2 (CUGBP Elav-like family member 2) #2, the record shows total luciferase, z-score 0.189.
After knock-down of CELF2 (CUGBP Elav-like family member 2) #3, the screen gave total luciferase, z-score -0.801.
Against LOC649294 (retired record) #1 the deposit lists total luciferase, z-score 1.51.
Depletion of LOC649294 (retired record) #2 came out at: total luciferase, z-score -0.425.
Silencing of LOC649294 (retired record) #3 gave: total luciferase, z-score 0.22.
Depletion of ANKRD11 (ankyrin repeat domain 11) #1 resulted in: total luciferase, z-score 0.4.
After knock-down of ANKRD11 (ankyrin repeat domain 11) #2, the screen gave total luciferase, z-score 4.02 (active).
Knock-down of ANKRD11 (ankyrin repeat domain 11) #3 came out at: total luciferase, z-score 1.95.
